# Source: the supplement of paper PMC10338343
# ± gives the standard deviation. The entries are a selection whose mix differs from that of the whole data set. Many of these values have a large error.
# Tested on: MIWI (PIWIL1) piRISC loaded with piRNA #2 (30 nt)
# Test: pre-steady-state target cleavage rate (min^-1); MIWI and MILI are mouse PIWI proteins and EfPiwi is from a freshwater sponge; tags in brackets are library labels; higher = faster piRNA-guided slicing of the target
# Conditions: guide: piRNA #2 5'p-UUAGGUAACCCAGUAGAUCCAGAGGAAUUC; auxiliary factor: 500 nM mouse GTSF1
# Summary of the method: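 Cleave-'n-Seq measured uncleaved targets by sequencing after a transcribed, DNA-blocked target RNA library […] was mixed with 1 nM active affinity-purified piRISC holding one synthetic guide, with or without 500 nM GTSF1 partner protein, at 33 °C in HEPES–potassium acetate buffer for 0–8 or 0–960 min. Counts were normalised to depth and to weakly complementary targets, three trials were pooled, and k3 was capped at 0.0001 min^-1. A burst-and-steady-state fit gave the pre-steady-state cleavage rate.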
# 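Note: 1 nM active piRISC with 0.1 nM target library at 33 °C single turnover.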
row,Sequence,pre-steady-state target cleavage rate
1,CUUAAGGAGACGAUCUACCUGGGUUACCUAA,0.0011 ± 0.0094
2,CAAUACCUCAGGAUCUACUGGGUUACCUAA,0.656 ± 0.061
3,CUUAAGGAGAGGAUACUACUGGGUUACCUAA,0.00359 ± 0.0039
4,CUUAAGGAGUGCAUCAACUGGGUUACCUAA,0.000244 ± 0.043
5,CUUAAGGAGACCUUGUACUGGGUUACCUAA,0.00143 ± 0.0065
6,CUUAAGGAGACCUAGAUCUGGGUGUACCUAA,0.000206 ± 0.04
7,CUUAAGGAGACGAUCUUCUGGGUUAGCUAA,0.00149 ± 0.0044
8,CUUAAGGAGACGAUCUACUGGGUUACCUGAA,0.00108 ± 0.008
9,CAAUUCCUCUGGAAGUACUGGGUUACCUAA,0.651 ± 0.044
10,CUUAAGGUCUGGAUCUCCUGGGUUACCUAA,0.0565 ± 0.013
11,CUUAAGGAGAGGAUCUAUUGGGUUACCUAA,0.00262 ± 0.0043
12,GAAUUCCUCUGCAUCUACUGCGUUACCUAA,0.591 ± 0.054
13,CUAUUCCUCUUGGAUCUACUGGGUUACCUAA,0.433 ± 0.046
14,CUUAAGGAGACGAUCUACUGGGAUACGUAA,0.000467 ± 0.01
15,CUUAAGGAGACCCUCUACUGGGUUACCUAA,0.00201 ± 0.0036
16,CUUAAGGAGUGGAUCUACUGGCUUACCUUA,0.00339 ± 0.0076
17,CUUAAGGAGAGGAUCUACUGGGAUUACCUAA,0.000233 ± 0.023
18,CUUAAGGAGACGAUCUACUGGGUUACCGAA,0.00143 ± 0.0035
19,CAAUUCCUCUGGUUCUACUGGGUUACGUAA,0.688 ± 0.045
20,CUUAAGGAGACCUAGUACUGGGUUACCAA,0.00077 ± 0.0068
21,CUUAAGGAGAGGAUCUACUGCGGUUACCUAA,0.00054 ± 0.0075
22,CUUAAGGAGACCAUCUUACUGGGUUACCUAA,0.00126 ± 0.0096
23,CUUAAGGAGUGGAUCUACGGGUUACCUAA,0.000697 ± 0.014
24,CUUAAGGAGACGAUCUACUGGGUUCCUAA,0.00146 ± 0.0044

row,Sequence,pre-steady-state target cleavage rate
1,CUUAAGGAGACGACUACUGGGUUACCUAA,0.00153 ± 0.0076
2,CUUAAGGAGAGGUUCUACUGGGUAACCUAA,0.00187 ± 0.0047
3,GAAUUCCUCAGGAUCUACUGGGUUACGUAA,0.738 ± 0.062
4,CUUAAGGACUGGAUCUACGGGUUACCUAA,0.000298 ± 0.032
5,CUUAAGGAGUGGAUCUUGUGGGUUACCUAA,0.000121 ± 0.036
6,CUUAAGGAGACCUAGUACUGCGGUUACCUAA,0.00125 ± 0.0061
7,CUUAAGGACUCGAUCUACUGGCUUACCUAA,0.00689 ± 0.0093
8,GAAUUCCUCUGGAUGUACAGGGUUACCUAA,0.413 ± 0.029
9,CUUAAGGAGUGGUUCUACUGGGUAACCUAA,0.00171 ± 0.012
10,CUUAAGGAGACCAUCUACUGGGCUACCUAA,0.00127 ± 0.008
11,CAAUUCCUCUGGAUCUACUUGGGUUACCUAA,0.00419 ± 0.0046
12,CUUAAGGAGACGAUCUUCUGGGUAACCUAA,0.000953 ± 0.0048
13,CUUAAGGAGACCUAGAUGAGUGGUUACCUAA,0.00141 ± 0.0058
14,CUUAUCCUCUCGAUCUACUGGGUUACCAAA,0.542 ± 0.041
15,CUUAAGGAGACCAUCUACCGGGUUACCUAA,0.00104 ± 0.012
16,CUUAAGGAGACCUAGAUGUCCGUUACCUAA,0.000696 ± 0.01
17,CUUAAGGAGAGGAUGUACUGGGUUACCUAA,0.00307 ± 0.0086
18,CUUAAGGAGAGGAUCUCCUGGGUUACCUAA,0.00203 ± 0.0071
19,CUUAAGGAGUGGAUCUAGUGGCUUACCUAA,0.000372 ± 0.027
20,CUUAAGGAGACCUAGUACUGGGGUACCUAA,0.000231 ± 0.019
21,CUAUUCCUCUAGAUCUACUGGGUUACCUAA,0.67 ± 0.042
22,CUUAAGGAGACCAUCUACUGGGAUUCCUAA,0.00104 ± 0.0066
23,CUUAAGGACGGAUCUACUGGGUUACCUAA,0.0543 ± 0.039
24,CAAUUCCUCGGAUCUACUGGGUUACCUAA,0.47 ± 0.087

# Reformatted: entries from further up.
row | Sequence | pre-steady-state target cleavage rate
23 | CUUAAGGACGGAUCUACUGGGUUACCUAA | 0.0543 ± 0.039
24 | CAAUUCCUCGGAUCUACUGGGUUACCUAA | 0.47 ± 0.087

# Following part:

row,Sequence,pre-steady-state target cleavage rate
1,CUUAAGGAGACCAUCUACUGGGUUCACCUAA,0.00131 ± 0.0062
2,CUUAAGGACUGGAUCUUCUGGGUUUCCUAA,0.00181 ± 0.016
3,CUUAAGGAGACCAUCUACUGGCUUACCUAA,0.0019 ± 0.0031
4,CUUAAGGAGACCUAGUACUGGGUUAACCUAA,0.00083 ± 0.007
5,CUUAAGGACUCGUUCUACUGGGUUACCUAA,0.00107 ± 0.021
6,CUUAAGGAGACGAUCUACUGGGUUUCGUAA,0.000919 ± 0.008
7,CUUAAGGAGACCAUCUACUCGGGUUACCUAA,0.0014 ± 0.0073
8,CUUAAGGAGAGGAUCAACUGGGUUUCCUAA,0.000509 ± 0.01
9,CUUAACCUCUGGAUCUACUGGGUACCUAA,0.000309 ± 0.017
10,CUUAAGGAGACGAUCUACUGGGGUUACCUAA,0.000635 ± 0.0086
11,CUUAAGGAGACCAUCUACUGGGAUAGCUAA,0.000185 ± 0.024
12,CUUAAGGAGACCUAGUACUCGGGUUACCUAA,0.000705 ± 0.011
13,GAAUUCCUCUCGAUCUACUGGGUUACCAAA,0.564 ± 0.067
14,CUUAAGGAGACGAUCACUGGGUUACCUAA,0.000948 ± 0.0088
15,CUUAAGGAGACCUACUACUGAGGUUACCUAA,0.00184 ± 0.0035
16,GAAUUCCUCUGGAUCUACUCCCUUACCUAA,0.00147 ± 0.0076
17,CUUAAGGAGACCUAGUACUGGGUAACCAAA,0.000197 ± 0.032
18,CUUAAGGAGACCAUCUACUGGGUUUCGUAA,0.000739 ± 0.013
19,CUUAAGGAGACCAUCUACUGGGUCACCUAA,0.000569 ± 0.011
20,CUUAAGGAGACCUACUACUGUGGUUACCUAA,0.000752 ± 0.012
21,CUUAAGGAGACCUAGAUCUGGGAAACCUAA,0.000146 ± 0.044
22,CUUAAGGAGACCUUCUACUGGGUUAACCUAA,0.00244 ± 0.0054
23,CUUAAGGAGACCUAGAUGAGGGUUACGCUAA,0.00035 ± 0.016
24,CUUAAGGAGACCUAGAACAGCGUUACCUAA,0.000466 ± 0.018
